Reference: the RNAGym collection of RNA variant scans (doi:10.1126/science.aae0568)
Variants at the background level are over-represented here.

B1: tRNA (parent)
chain: GUUCCGUUGGCGUAAUGGUAACGCGUCUCCCUCCUAAGGAGAAGACUGCGGGUUCGAGUCCCGUACGGAACG

Variants of: B1
Test: yeast fitness relative to wild type (ratio to wild type); higher = fitter; tRNA-Arg(CCU), competitive growth, 37 C, YPD
In short: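 A pool of Saccharomyces cerevisiae strains, each with a tRNA-Arg(CCU) gene variant at the native genomic locus, was competed in YPD at 37°C for 24 hours across six parallel replicates. The variants had been chemically synthesised at a 3% per-site mutation rate over 69 sites, and gene amplicons before and after competition were read by 100-nucleotide paired-end sequencing. Darwinian fitness relative to wild type rested on changes in genotype frequencies. Genotypes required ≥ 100 starting reads, and estimates < 0.5 were set to 0.5.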
With G18C A37U A40U U64C G67A the yeast fitness was ≤ 0.5. In the case of G6C U26C A43C A57G, the yeast fitness is reported as ≤ 0.5. Variant C27U C29G has a yeast fitness of 0.58. In the case of U8C C27G C33A U47A, the yeast fitness is reported as ≤ 0.5. In the case of C31A C33U G41C, the yeast fitness is reported as ≤ 0.5. In the case of C5U A37C A42U, the yeast fitness is reported as ≤ 0.5. With G9A C31U C49U A69C the yeast fitness was ≤ 0.5. For U16A G17A C34U C66U A70U, the yeast fitness was ≤ 0.5. In the case of C31G A45C C60A, the yeast fitness is reported as ≤ 0.5. For C34A C55G U64C A65C, the yeast fitness was ≤ 0.5. For C4A A20G C29U C31A A40G, the yeast fitness was ≤ 0.5. With U7A G10A A15U A43G G50A C66U the yeast fitness was ≤ 0.5. Variant U2G C5U U32C C55U has a yeast fitness of 0.581. With U3G C5U G12A the yeast fitness was ≤ 0.5. In the case of A40U U53C G56A, the yeast fitness is reported as ≤ 0.5. With U8A C11A C66A the yeast fitness was ≤ 0.5. In the case of C11U G38C C46G A65U, the yeast fitness is reported as ≤ 0.5. With C11A A43G C60A A65C the yeast fitness was ≤ 0.5. For U2A U28C G67U, the yeast fitness was ≤ 0.5. With C11U G18C A40C G63A the yeast fitness was ≤ 0.5. In the case of C29G A42C C55U, the yeast fitness is reported as ≤ 0.5. In the case of C33A A57G C60U, the yeast fitness is reported as ≤ 0.5. C29G G50C C66A gave a yeast fitness of 0.518. For C4A G23A C33G C60A A70C, the yeast fitness was ≤ 0.5. With C5U C22G C34A A36U G48A G52C C60A the yeast fitness was ≤ 0.5. For A14C U19A A45C, the yeast fitness was ≤ 0.5. With G12A A15U C22A U54A the yeast fitness was ≤ 0.5. For A20U G39C C49U C55G, the yeast fitness was ≤ 0.5. For C4U U28C C29U G63C A65U, the yeast fitness was ≤ 0.5. In the case of A37C G56A U59A, the yeast fitness is reported as ≤ 0.5. With A15G A43U U47G G63A A65G the yeast fitness was ≤ 0.5. In the case of C11A U13C C27A C30G, the yeast fitness is reported as ≤ 0.5. With G9A A14C U32A the yeast fitness was ≤ 0.5. In the case of G25C C27G G58A U64A A65U, the yeast fitness is reported as ≤ 0.5. With G10C U26A C34G U53A A65U the yeast fitness was ≤ 0.5. For U2C U3A C24A C27U, the yeast fitness was ≤ 0.5. With G10A C27G C33G G41C C61A the yeast fitness was ≤ 0.5. With U7A U16C A69G the yeast fitness was ≤ 0.5. With G6C C34G G38A C61U the yeast fitness was ≤ 0.5. For C5G U7C A36C A57U C61A C66G, the yeast fitness was ≤ 0.5. In the case of U3C G39C C66U, the yeast fitness is reported as ≤ 0.5. In the case of C5U A37G A43C U59C, the yeast fitness is reported as ≤ 0.5. For A20U C31U A45G, the yeast fitness was ≤ 0.5. In the case of A21U A37G A70C, the yeast fitness is reported as ≤ 0.5. For C27U C29G A42C C55G, the yeast fitness was ≤ 0.5. With C4G A14C C61U the yeast fitness was ≤ 0.5. With C27A C30G G41C the yeast fitness was ≤ 0.5. In the case of G17A G18A C61A, the yeast fitness is reported as ≤ 0.5. With C31G G38A C61A G63A the yeast fitness was ≤ 0.5. For U2C G10C G48C C62U G68C, the yeast fitness was ≤ 0.5. With G25A U32A U53A the yeast fitness was ≤ 0.5. For G6C C33G C34U, the yeast fitness was ≤ 0.5. With C22A C24G A36G G39C G51A C55U C66U the yeast fitness was ≤ 0.5. For U32C C33A, the yeast fitness was 0.628. For C5U C34A C66U, the yeast fitness was ≤ 0.5. In the case of G10C U19A C29G C34U, the yeast fitness is reported as ≤ 0.5. Variant U32C A43C has a yeast fitness of 0.83. For U2A C61U, the yeast fitness was 0.768. For U3A U8A C31G A40C G58A, the yeast fitness was ≤ 0.5. With C11U A15U C34A G68A A70U the yeast fitness was ≤ 0.5. In the case of U8C C27U C34G, the yeast fitness is reported as ≤ 0.5. In the case of C5G U53G G67A, the yeast fitness is reported as ≤ 0.5. In the case of U2A C24G A43U C46U G67C, the yeast fitness is reported as ≤ 0.5. With U2C C4A C11U C29U G67A A70U the yeast fitness was ≤ 0.5. For G17A A20C C24U A43C G52A, the yeast fitness was ≤ 0.5. A15G A57G showed a yeast fitness of 0.899. For C4G A20C C24G A37G, the yeast fitness was ≤ 0.5. For C4G C5G G38A G63C, the yeast fitness was ≤ 0.5. For C5U U7A A21U C27G C29G, the yeast fitness was ≤ 0.5. With C34G C66A A69C the yeast fitness was 0.599. For U7A A20C U26A, the yeast fitness was ≤ 0.5. With U16G G56C A65U the yeast fitness was ≤ 0.5. In the case of C27U C33G A43G A45C, the yeast fitness is reported as 0.634. With G18C A45C U47C the yeast fitness was ≤ 0.5. With C5U U8C C22U G38C the yeast fitness was ≤ 0.5. For C11G U16C C22U C60G G68U, the yeast fitness was ≤ 0.5. For C31U A36U A43C C55G G68A, the yeast fitness was ≤ 0.5. In the case of C4U A36U A40C A65C, the yeast fitness is reported as ≤ 0.5. Variant A42G U59C C61U has a yeast fitness of 0.502. A43U C46A A69C showed a yeast fitness of 0.734. In the case of C4U G6C C11U A14U C24G G58C, the yeast fitness is reported as ≤ 0.5. For U8G U13A C30U G39C C55G A65C A70C, the yeast fitness was ≤ 0.5. In the case of C22G C55A C62U A65C, the yeast fitness is reported as ≤ 0.5. For G9A A14C U59A C60G G67C, the yeast fitness was ≤ 0.5. In the case of C27G A42G A43U, the yeast fitness is reported as ≤ 0.5. For C27A G39C A57U A70U, the yeast fitness was ≤ 0.5. U13G G48A showed a yeast fitness of 0.986. For U7C A37C C60G A65U A70U, the yeast fitness was ≤ 0.5. In the case of G6C A40C U47C G52A G58A, the yeast fitness is reported as ≤ 0.5. In the case of U3G C31U C34A, the yeast fitness is reported as ≤ 0.5. With G9C C22A C34A G51A A65U the yeast fitness was ≤ 0.5. For G10A G17C C30G C33G C61A A65U, the yeast fitness was ≤ 0.5. In the case of U28A G63A G68A, the yeast fitness is reported as ≤ 0.5. Variant C5G C46G has a yeast fitness of 0.751. In the case of G17A A21C A36C G56A, the yeast fitness is reported as ≤ 0.5. With C11A U19C A37G U53G the yeast fitness was ≤ 0.5. For C4G A40U A45U U54C G63C A70U, the yeast fitness was ≤ 0.5. For G9A C27G, the yeast fitness was 0.757. In the case of C4A C24U A45U G56A, the yeast fitness is reported as ≤ 0.5. For A15C U19C A37C A69U, the yeast fitness was ≤ 0.5. For C5A C24G A69C, the yeast fitness was ≤ 0.5. With C27G C31U C34A the yeast fitness was ≤ 0.5. A15U G39A showed a yeast fitness of 0.667. For C4G A14U G23A, the yeast fitness was ≤ 0.5. For A14G C27A A37C G44A A65G C66U, the yeast fitness was ≤ 0.5. With C34A A45C C49A the yeast fitness was ≤ 0.5. In the case of C29G C30A C49U, the yeast fitness is reported as ≤ 0.5. In the case of C33A A40U, the yeast fitness is reported as 0.741. With C5G C27A A37C C55G the yeast fitness was ≤ 0.5. In the case of U16A C22U U28C U32C C55G, the yeast fitness is reported as ≤ 0.5. With U8A C27U A40G the yeast fitness was ≤ 0.5. For U2A G12A A20G A21C C29A, the yeast fitness was ≤ 0.5. In the case of C4A C24G C29G A43C U53A G67A, the yeast fitness is reported as ≤ 0.5. For U19C A20C C31G G68C, the yeast fitness was ≤ 0.5. In the case of C11A U16C A21G C62A, the yeast fitness is reported as ≤ 0.5. For U7C C30G C49U, the yeast fitness was ≤ 0.5. With G25A C27A U35C A57C the yeast fitness was ≤ 0.5. With U16A A37U C62G the yeast fitness was ≤ 0.5. For A14U A43U U64A A69C, the yeast fitness was ≤ 0.5. In the case of G10A C11U C29A C34A G44A, the yeast fitness is reported as ≤ 0.5. In the case of A15G A36C G67C, the yeast fitness is reported as ≤ 0.5. For A43C C49A, the yeast fitness was 0.631. For C4A U19G U35C U53C, the yeast fitness was ≤ 0.5. In the case of U2C C4A G23A C24G G68A, the yeast fitness is reported as ≤ 0.5. With C4U C29G C30U the yeast fitness was ≤ 0.5. In the case of G6C U32A A37U C66A, the yeast fitness is reported as ≤ 0.5. With G6A G10A U35G A43G C46U the yeast fitness was ≤ 0.5. With U3C C5G A20G G63C C66G the yeast fitness was ≤ 0.5. For U2A G9C G12A A42C C46A A65U, the yeast fitness was ≤ 0.5. For C5G G9C A43G G67U, the yeast fitness was ≤ 0.5. In the case of G6A C55G C62U, the yeast fitness is reported as ≤ 0.5. With A15G G39C the yeast fitness was 0.736. For U8G A20U A45U U47A U59C A69C, the yeast fitness was ≤ 0.5. With U2C G41C G68A the yeast fitness was ≤ 0.5. For C4A U13C A20C C34A G39C A43U, the yeast fitness was ≤ 0.5. With C4A C34G G38C G68A the yeast fitness was ≤ 0.5. In the case of C30G A37C C46G G67C, the yeast fitness is reported as ≤ 0.5. For A20G C34G A43U C61G, the yeast fitness was ≤ 0.5. For U16G G67U, the yeast fitness was 0.774. For C33G A43C G68A, the yeast fitness was ≤ 0.5. In the case of C5U C31G C55G U64C, the yeast fitness is reported as ≤ 0.5. In the case of G23A C33G A37G, the yeast fitness is reported as ≤ 0.5. C22G A40C showed a yeast fitness of 0.68. For G51A G63U C66A, the yeast fitness was ≤ 0.5. In the case of U2A C5A U16C C30A, the yeast fitness is reported as ≤ 0.5. For U3G U7A G9A A69U, the yeast fitness was ≤ 0.5. With G6A G56C G67U the yeast fitness was ≤ 0.5. With A20G C27U C49U A57G the yeast fitness was ≤ 0.5. With C4A C5G G52C the yeast fitness was ≤ 0.5. With G38A C66G A69U the yeast fitness was ≤ 0.5. In the case of A21U C30U A42G C55U, the yeast fitness is reported as ≤ 0.5. For A15U A20G C22G U28A C31G C55A G68C, the yeast fitness was ≤ 0.5. For G17U A21G C55U, the yeast fitness was ≤ 0.5. In the case of A21C A57G C66U, the yeast fitness is reported as ≤ 0.5. With U2A U54A G68C the yeast fitness was ≤ 0.5. In the case of G41C G48C C55G A69U, the yeast fitness is reported as ≤ 0.5. For U8G A37U, the yeast fitness was ≤ 0.5. In the case of A14U C24G U54G, the yeast fitness is reported as ≤ 0.5. U26C C49G gave a yeast fitness of 0.842. In the case of C31G A36C G68A A70C, the yeast fitness is reported as ≤ 0.5. A15C C24U gave a yeast fitness of 0.601. In the case of U7G C11U G12C C33U C61G C62G C66U, the yeast fitness is reported as ≤ 0.5. With C11G A37G G39A C62U the yeast fitness was ≤ 0.5. For G10C C29U C31U, the yeast fitness was ≤ 0.5. For G9A C11A C24U C34A A37U C62A C66A, the yeast fitness was ≤ 0.5. For C27G U35A G44A, the yeast fitness was ≤ 0.5. In the case of C31U G58C U59G C61G, the yeast fitness is reported as ≤ 0.5.
